For the experiment, the target named is HIV-1 integrase (abstract P7) (HIV-1). Kind of experiment: assembly of multiprotein complexes; multiprotein complexes assembled in vitro and/or in cellulo around the integrase protein and DNA.

Results are given in words; binding and its absence hold for the method and conditions named. Binding can be weak; no strength is given.

B1: TNPO3 (protein, UniProt Q9Y5L0 1-923)
chain: MEGAKPTLQLVYQAVQALYHDPDPSGKERASFWLGELQRSVHAWEISDQLLQIRQDVESCYFAAQTMKMKIQTSFYELPTDSHASLRDSLLTHIQNLKDLSPVIVTQLALAIADLALQMPSWKGCVQTLVEKYSNDVTSLPFLLEILTVLPEEVHSRSLRIGANRRTEIIEDLAFYSSTVVSLLMTCVEKAGTDEKMLMKVFRCLGSWFNLGVLDSNFMANNKLLALLFEVLQQDKTSSNLHEAASDCVCSALYAIENVETNLPLAMQLFQGVLTLETAYHMAVAREDLDKVLNYCRIFTELCETFLEKIVCTPGQGLGDLRTLELLLICAGHPQYEVVEISFNFWYRLGEHLYKTNDEVIHGIFKAYIQRLLHALARHCQLEPDHEGVPEETDDFGEFRMRVSDLVKDLIFLIGSMECFAQLYSTLKEGNPPWEVTEAVLFIMAAIAKSVDPENNPTLVEVLEGVVRLPETVHTAVRYTSIELVGEMSEVVDRNPQFLDPVLGYLMKGLCEKPLASAAAKAIHNICSVCRDHMAQHFNGLLEIARSLDSFLLSPEAAVGLLKGTALVLARLPLDKITECLSELCSVQVMALKKLLSQEPSNGISSDPTVFLDRLAVIFRHTNPIVENGQTHPCQKVIQEIWPVLSETLNKHRADNRIVERCCRCLRFAVRCVGKGSAALLQPLVTQMVNVYHVHQHSCFLYLGSILVDEYGMEEGCRQGLLDMLQALCIPTFQLLEQQNGLQNHPDTVDDLFRLATRFIQRSPVTLLRSQVVIPILQWAIASTTLDHRDANCSVMRFLRDLIHTGVANDHEEDFELRKELIGQVMNQLGQQLVSQLLHTCCFCLPPYTLPDVAEVLWEIMQVDRPTFCRWLENSLKGLPKETTVGAVTVTHKQLTDFHKQVTSAEECKQVCWALRDFTRLFR
In the case of B1, the binding entry is “binds”.

These data come from PMC6156844.
